Laboratory results published in patent US20240423973A1 (VINCERX PHARMA GMBH, priority 2021, published 2024).

Assay: general procedure: solution-phase peptide synthesis; HATU / N,N-diisopropylethylamine; EDCI/HOBt; NHS active esters
Conditions: trifluoroacetic acid salt; for crude purity (method not given) / final purity (method not given) / final LC-MS purity / crude LC-MS purity: LC-MS

Substance: (4S)-4,11-diethyl-3,14-dioxo-3,4,12,14-tetrahydro-1H-pyrano[3′,4′:6,7] indolizino[1,2-b]quinolin-4-yl N-{2-[{2-[(2-aminoethyl)(methyl)amino]ethyl}(methyl)amino]ethyl}-N-methylglycylglycyl-L-prolyl-L-valinate·trifluoroacetic acid (1:1)
- crude purity (method not given) (late stage modification step): 100% purity

Substance: (4S)-4,11-diethyl-3,14-dioxo-3,4,12,14-tetrahydro-1H-pyrano[3′,4′:6,7]indolizino[1,2-b]quinolin-4-yl N-{2-[{2-[(2-{[N^2,N^6-bis(N-{2-[{2-[{2-[({4-[({(1S)-2-carboxy-1-[3-({3-[(propylcarbamoyl) amino]benzene-1-sulfonyl}amino)phenyl]ethyl}carbamoyl)amino] phenyl}carbamoyl) amino]ethyl}(methyl)amino]ethyl}(methyl) amino]ethyl}-N-methylglycyl)-L-lysyl]amino}ethyl)(methyl)amino]ethyl}(methyl)amino]ethyl}-N-methylglycyl-L-asparaginyl-L-prolyl-L-valinate
- final purity (method not given) (conjugation step): 100% purity
- conjugation yield (conjugation step): 36% yield

Substance: benzyl N-{5-[(2,5-dioxopyrrolidin-1-yl)oxy]-5-oxopentanoyl}-N-methylglycyl-N-methylglycyl-N-methylglycyl-N-methylglycyl-N-methylglycyl-N-methylglycyl-N-methylglycyl-N-methylglycinate
- final LC-MS purity (late stage modification step): 91% purity
- step yield (late stage modification step): 62% yield

Substance: (2S)-1-[(18S)-18-(2-tert-butoxy-2-oxoethyl)-2,2,5,8,11,14-hexamethyl-4,7,10,13,16,19-hexaoxo-3-oxa-5,8,11,14,17-pentaazanonadecan-19-yl]pyrrolidine-2-carboxylic acid
- crude purity (method not given) (late stage modification step): 99%
- step yield (late stage modification step): 98%

Substance: 2-[[2-[[2-[[2-[tert-butoxycarbonyl(methyl)amino]acetyl]-methyl-amino]acetyl]-methyl-amino]acetyl]-methyl-amino]acetic acid
- crude purity (method not given) (late stage modification step): 94%
- step yield (late stage modification step): 93%

Substance: benzyl N-(tert-butoxycarbonyl)-N-methylglycyl-N-methylglycyl-N-methylglycyl-N-methylglycyl-N-methylglycyl-N-methylglycyl-N-methylglycyl-N-methylglycinate
- final LC-MS purity (coupling step): 89% purity
- step yield (coupling step): 81% yield

Substance: (4S)-4,11-diethyl-3,14-dioxo-3,4,12,14-tetrahydro-1H-pyrano[3′,4′:6,7]indolizino[1,2-b]quinolin-4-yl N-methylglycyl-N-methylglycyl-N-methylglycyl-N-methylglycyl-L-alpha-aspartyl-L-prolyl-L-valinate-trifluoroacetic acid (1/1)
- crude purity (method not given) (late stage modification step): 97%
- step yield (late stage modification step): 101%

Substance: N-{5-[(2,5-dioxopyrrolidin-1-yl)oxy]-5-oxopentanoyl}-N-methylglycyl-N-methylglycyl-N-methylglycyl-N-methylglycine
- final LC-MS purity (late stage modification step): 93% purity
- step yield (late stage modification step): 20% yield

Substance: (4S)-4,11-Diethyl-3,14-dioxo-3,4,12,14-tetrahydro-1H-pyrano[3′,4′:6,7]indolizino[1,2-b]quinolin-4-yl N-[3-(2-{2-[2-(L-lysylamino)ethoxy]ethoxy}ethoxy)propanoyl]-L-alpha-aspartyl-L-prolyl-L-valinate·trifluoroacetic acid (1:1)
- crude purity (method not given) (late stage modification step): 100% purity

Substance: (4S)-4,11-diethyl-3,14-dioxo-3,4,12,14-tetrahydro-1H-pyrano[3′,4′:6,7]indolizino[1,2-b]quinolin-4-yl N-(3-{2-[2-(2-{[N^2,N^6-bis(3-{2-[2-(2-aminoethoxy)ethoxy]ethoxy}propanoyl)-L-lysyl]amino}ethoxy)ethoxy]ethoxy}propanoyl)-L-alpha-aspartyl-L-prolyl-L-valinate
- crude purity (method not given) (late stage modification step): 100% purity
- step yield (late stage modification step): 98% yield

Substance: (4S)-4,11-diethyl-3,14-dioxo-3,4,12,14-tetrahydro-1H-pyrano[3′,4′:6,7]indolizino[1,2-b]quinolin-4-yl N-{2-[{2-[{2-[({4-[({(1R)-2-carboxy-1-[3-({3-[(propylcarbamoyl)amino]benzene-1-sulfonyl}amino)phenyl]ethyl}carbamoyl)amino]phenyl}carbamoyl)amino]ethyl}(methyl)amino]ethyl}(methyl)amino]ethyl}-N-methylglycylglycyl-L-prolyl-L-valinate
- final purity (method not given) (conjugation step): 93% purity
- conjugation yield (conjugation step): 72%

Substance: N-(tert-butoxycarbonyl)-N-methylglycyl-N-methylglycyl-N-methylglycyl-N-methylglycyl-N-methylglycyl-N-methylglycyl-N-methylglycyl-N-methylglycine
- crude LC-MS purity (late stage modification step): 80% purity
- step yield (late stage modification step): 71% yield

Substance: (2S)-1-[(30S)-30-(2-tert-butoxy-2-oxoethyl)-2,2,5,8,11,14,17,20,23,26-decamethyl-4,7,10,13,16,19,22,25,28,31-decaoxo-3-oxa-5,8,11,14,17,20,23,26,29-nonaazahentriacontan-31-yl]pyrrolidine-2-carboxylic acid
- crude LC-MS purity (late stage modification step): 93% purity
- step yield (late stage modification step): 88% yield

Substance: (4S)-4,11-Diethyl-3,14-dioxo-3,4,12,14-tetrahydro-1H-pyrano[3′,4′:6,7]indolizino[1,2-b]quinolin-4-yl N-{2-[{2-[{2-[({4-[({(1R)-2-carboxy-1-[3-({3-[(propylcarbamoyl)amino]benzene-1-sulfonyl}amino)phenyl]ethyl}carbamoyl)amino]phenyl}carbamoyl)amino]ethyl} (methyl)amino] ethyl} I(methyl)amino]ethyl}-N-methylglycyl-L-asparaginyl-L-prolyl-L-valinate [B4]
- final purity (method not given) (conjugation step): 96% purity
- conjugation yield (conjugation step): 63%

Substance: (4S)-4,11-diethyl-3,14-dioxo-3,4,12,14-tetrahydro-1H-pyrano[3′,4′:6,7]indolizino[1,2-b]quinolin-4-yl N-{2-[{2-[{2-[({4-[({(1S)-2-carboxy-1-[3-({3-[(propylcarbamoyl)amino]benzene-1-sulfonyl}amino)phenyl]ethyl}carbamoyl)amino]phenyl}carbamoyl)amino]ethyl}(methyl)amino]ethyl}(methyl)amino]ethyl}-N-methylglycylglycyl-L-prolyl-L-valinate
- final purity (method not given) (conjugation step): 93% purity
- conjugation yield (conjugation step): 72% yield

Substance: Boc-Intermediate 3
- final purity (method not given) (coupling step): 100% purity
- step yield (coupling step): 81%

Substance: (4S)-4,11-diethyl-3,14-dioxo-3,4,12,14-tetrahydro-1H-pyrano[3′,4′:6,7]indolizino[1,2-b]quinolin-4-yl N-{2-[{2-[(2-aminoethyl)(methyl) amino]ethyl}(methyl)amino]ethyl}-N-methylglycyl-L-asparaginyl-L-prolyl-L-valinate·trifluoroacetic acid (1:1)
- final purity (method not given) (late stage modification step): 100% purity

Substance: Boc-Intermediate 11
- final purity (method not given) (coupling step): 98% purity
- step yield (coupling step): 81% yield

Substance: (4S)-4,11-diethyl-3,14-dioxo-3,4,12,14-tetrahydro-1H-pyrano[3′,4′:6,7]indolizino[1,2-b]quinolin-4-yl N-{2-[(2-{[2-({5-[(2,5-dioxopyrrolidin-1-yl)oxy]-5-oxopentanoyl}amino)ethyl] (methyl) amino} ethyl)(methyl)amino]ethyl}-N-methylglycylglycyl-L-prolyl-L-valinate
- final purity (method not given) (late stage modification step): 79%
- step yield (late stage modification step): 58%

Substance: Boc-Intermediate 12
- final purity (method not given) (conjugation step): 87% purity
- conjugation yield (conjugation step): 52% yield

Substance: (4S)-4,11-diethyl-3,14-dioxo-3,4,12,14-tetrahydro-1H-pyrano[3′,4′:6,7]indolizino[1,2-b]quinolin-4-yl N-{2-[{2-[(2-{[N^2,N^6-bis(14-{4-[({(1S)-2-carboxy-1-[3-({3-[(propylcarbamoyl) amino] benzene-1-sulfonyl}amino)phenyl]ethyl}carbamoyl)amino]anilino}-14-oxo-4,7,10-trioxa-13-azatetradecanan-1-oyl)-L-lysyl]amino}ethyl) (methyl)amino]ethyl}(methyl) amino]ethyl}-N-methylglycyl-L-asparaginyl-L-prolyl-L-valinate
- final purity (method not given) (conjugation step): 100% purity
- conjugation yield (conjugation step): 41% yield

Substance: (4S)-4,11-diethyl-3,14-dioxo-3,4,12,14-tetrahydro-1H-pyrano[3′,4′:6,7]indolizino[1,2-b]quinolin-4-yl N-{2-[{2-[(2-{[N^2,N^6-bis(14-{4-[({(1R)-2-carboxy-1-[3-({3-[(propylcarbamoyl) amino]benzene-1-sulfonyl}amino)phenyl]ethyl}carbamoyl)amino]anilino}-14-oxo-4,7,10-trioxa-13-azatetradecanan-1-oyl)-L-lysyl]amino}ethyl)(methyl)amino] ethyl}(methyl)amino]ethyl}-N-methylglycyl-L-asparaginyl-L-prolyl-L-valinate
- final purity (method not given) (conjugation step): 100% purity
- conjugation yield (conjugation step): 48% yield

Substance: (4S)-4,11-diethyl-3,14-dioxo-3,4,12,14-tetrahydro-1H-pyrano[3′,4′:6,7]indolizino[1,2-b]quinolin-4-yl N-{2-[{2-[({4-[({(1R)-2-carboxy-1-[3-({3-[(propylcarbamoyl)amino]benzene-1-sulfonyl}amino)phenyl]ethyl}carbamoyl)amino]phenyl}carbamoyl)(methyl)amino]ethyl} (methyl)amino]ethyl}-N-methylglycyl-L-asparaginyl-L-prolyl-L-valinate
- final purity (method not given) (conjugation step): 93% purity
- conjugation yield (conjugation step): 30%

Substance: (4S)-4,11-diethyl-3,14-dioxo-3,4,12,14-tetrahydro-1H-pyrano[3′,4′:6,7]indolizino[1,2-b]quinolin-4-yl N-{2-[{2-[{2-[({4-[({(1S)-2-carboxy-1-[3-({3-[(propylcarbamoyl)amino]benzene-1-sulfonyl}amino)phenyl]ethyl}carbamoyl)amino]phenyl}carbamoyl)amino]ethyl}(methyl)amino] ethyl}(methyl)amino]ethyl}-N-methylglycyl-L-asparaginyl-L-prolyl-L-valinate
- final purity (method not given) (conjugation step): 100% purity
- conjugation yield (conjugation step): 17% yield

Substance: Boc-Intermediate 13
- final purity (method not given) (coupling step): 100% purity
- step yield (coupling step): 68% yield
